Data as given in patent publication US4632940A, “N-substituted 1-(4'-alkylsulfonylphenyl)-2-amino-1,3-propanediols, pharmaceutical compositions containing them, having local anesthetic activity” (Zambon S.p.A., priority 1983, dated 1986).

Test: in vivo
Conditions: iv
Text: Toxicity study in mouse has been performed by intravenous administration. The Compounds have been administered as hydrochloride. After treatment the animals have been observed for 24 hrs.
In the same Table is also shown the Therapeutic Index which has been calculated as ratio between DL50 and ED50.

CCN(CC)CC(=O)Nc1c(C)cccc1C [Lidocaine, reference compound]
LD50 at 24 h (mouse, administered as hydrochloride, observed for 24 hrs): 140 µmol/kg | selectivity ratio (ratio of LD50 (mouse, i.v.) to ED50 (guinea pig local infiltration), read-out: Therapeutic Index LD50/ED50): 0.28
